For some of these results: Strings that start with PEPTIDE1 are HELM notation: dots part the residues, brackets hold end groups and non-standard residues.

These results are taken from paper PMC8495968 (RSC Chemical Biology, 2021).

The first series is described as follows: general procedure: Fmoc solid-phase peptide synthesis; Rink amide MBHA resin. The settings on record: whole synthesis.
With “PEPTIDE1{[ac].D.N.E.I.E.V.E.I.V.W.E.K.K.[am]}$$$$V2.0”, the “final purity (method not given)” value was determined as 98%.
Still for that read-out and setting: the figure for “PEPTIDE1{[ac].A.A.Q.Y.R.R.I.G.D.K.V.N.L.R.Q.K.L.L.N.[am]}$$$$V2.0” is 95%.
Take “PEPTIDE1{[ac].D.N.E.I.E.V.I.I.E.W.E.K.K.[am]}$$$$V2.0”: the “final purity (method not given)” value was found to be 91%.
On the same count and under the same terms, the figure for “PEPTIDE1{[ac].A.A.Q.L.R.R.I.G.D.K.F.N.L.R.Q.K.L.L.N.[am]}$$$$V2.0” is 95%; for “PEPTIDE1{[ac].A.A.Q.W.R.R.I.G.D.K.V.N.L.R.Q.K.L.L.N.[am]}$$$$V2.0” it is 94%; for “PEPTIDE1{[ac].A.A.Q.L.R.R.I.G.D.K.V.N.L.R.Q.K.L.L.N.[am]}$$$$V2.0” it is 90%.
The same measure, in the same setting: the result for “PEPTIDE1{[ac].D.N.E.I.E.I.I.I.V.W.E.K.K.[am]}$$$$V2.0” reads 97%; that for “PEPTIDE1{[ac].D.N.E.I.E.V.I.I.V.W.E.K.K.[am]}$$$$V2.0”, 100%; that for DNED EVIIVWEKK, 96%.
For the compound “PEPTIDE1{[ac].A.A.Q.F.R.R.I.G.D.K.V.N.L.R.Q.K.L.L.N.[am]}$$$$V2.0”, the “final purity (method not given)” value worked out at 94%.

The next series can be described thus: Circular dichroism, helicity. It counts as physicochemical. The settings on record: CD, in buffer (20 mM potassium phosphate, pH 7.5, 150 µM peptide).
Turning to “Ac-AAQWRRIGDKVNLRQKLLN-NH2 [NOXA75–93L78W]”, the “% helicity” value stood at 12%.
In the case of “Ac-AAQLRRIGDKFNLRQKLLN-NH2 [NOXA75–93V85F]”, the “% helicity” value came out at 9%.
With `CC[C@H](C)[C@H](NC(=O)[C@H](CCCNC(=N)N)NC(=O)[C@H](CCCNC(=N)N)NC(=O)[C@H](CC(C)C)NC(=O)[C@H](CCC(N)=O)NC(=O)[C@H](C)NC(=O)[C@H](C)NC(C)=O)C(=O)NCC(=O)N[C@@H](CC(=O)O)C(=O)N[C@@H](CCCCN)C(=O)N[C@H](C(=O)N[C@@H](CC(N)=O)C(=O)N[C@@H](CC(C)C)C(=O)N[C@@H](CCCNC(=N)N)C(=O)N[C@@H](CCC(N)=O)C(=O)N[C@@H](CCCCN)C(=O)N[C@@H](CC(C)C)C(=O)N[C@@H](CC(C)C)C(=O)N[C@@H](CC(N)=O)C(N)=O)C(C)C` [NOXA75–93], the “% helicity” value worked out at 15%.
